± gives the standard deviation of the averaged measurements. Most values lie within the scatter of the assay; repeated measurements hardly agree.
Compound: CC[C@@H](C)Nc1cc(C(=O)N[C@H]2C[C@H]3CC[C@@H](C2)N3c2ccc(C(=O)C3CC3)cn2)c(C)cc1C(N)=O [XL888]
Assay: phosphopeptide melting temperature shift (XL888 minus DMSO); higher = stabilised by drug treatment
Details: 100 µM; treatment time 2 h; layout: intact cells; SK-Mel 24
Method: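 Phospho-TPP in intact SK-Mel 24 cells treated with 100 uM XL888 or DMSO for 2 h, heated at 10 temperatures (37-67 C) for 3 min, soluble fraction TMT10plex-labelled and TiO2 phospho-enriched. Melting curves were fitted per phosphopeptide; the value is the melting point difference (drug minus vehicle) in each of two biological replicates.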

Protein sequences, listed by entry. Tags and fused reporters are not part of them. Lines headed by an entry give the natural chain unless they say otherwise; changes in a name come on top.
UniProt P18858, whole entry, looked up: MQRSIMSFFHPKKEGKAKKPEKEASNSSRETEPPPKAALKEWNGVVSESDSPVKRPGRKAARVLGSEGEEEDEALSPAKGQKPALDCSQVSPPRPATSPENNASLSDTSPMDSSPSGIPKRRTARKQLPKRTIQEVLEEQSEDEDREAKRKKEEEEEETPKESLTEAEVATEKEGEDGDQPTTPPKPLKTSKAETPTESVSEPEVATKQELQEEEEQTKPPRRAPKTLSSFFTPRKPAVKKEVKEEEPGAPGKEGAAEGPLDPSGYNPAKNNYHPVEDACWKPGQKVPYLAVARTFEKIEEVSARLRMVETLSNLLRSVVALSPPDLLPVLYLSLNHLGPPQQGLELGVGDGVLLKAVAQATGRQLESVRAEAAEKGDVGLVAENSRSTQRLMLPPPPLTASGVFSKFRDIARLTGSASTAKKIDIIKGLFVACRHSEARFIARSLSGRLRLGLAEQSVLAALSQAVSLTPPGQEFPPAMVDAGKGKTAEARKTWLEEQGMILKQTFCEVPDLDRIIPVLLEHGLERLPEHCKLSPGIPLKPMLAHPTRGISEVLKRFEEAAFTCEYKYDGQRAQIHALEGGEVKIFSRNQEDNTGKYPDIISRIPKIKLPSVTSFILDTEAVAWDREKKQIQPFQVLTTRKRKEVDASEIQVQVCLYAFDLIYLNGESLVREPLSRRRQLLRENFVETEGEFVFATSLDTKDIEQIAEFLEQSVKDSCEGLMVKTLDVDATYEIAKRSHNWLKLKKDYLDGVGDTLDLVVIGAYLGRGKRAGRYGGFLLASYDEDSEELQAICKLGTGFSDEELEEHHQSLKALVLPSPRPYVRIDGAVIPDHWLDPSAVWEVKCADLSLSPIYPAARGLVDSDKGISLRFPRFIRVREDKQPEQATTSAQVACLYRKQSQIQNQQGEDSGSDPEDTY
UniProt P21333, whole entry, looked up: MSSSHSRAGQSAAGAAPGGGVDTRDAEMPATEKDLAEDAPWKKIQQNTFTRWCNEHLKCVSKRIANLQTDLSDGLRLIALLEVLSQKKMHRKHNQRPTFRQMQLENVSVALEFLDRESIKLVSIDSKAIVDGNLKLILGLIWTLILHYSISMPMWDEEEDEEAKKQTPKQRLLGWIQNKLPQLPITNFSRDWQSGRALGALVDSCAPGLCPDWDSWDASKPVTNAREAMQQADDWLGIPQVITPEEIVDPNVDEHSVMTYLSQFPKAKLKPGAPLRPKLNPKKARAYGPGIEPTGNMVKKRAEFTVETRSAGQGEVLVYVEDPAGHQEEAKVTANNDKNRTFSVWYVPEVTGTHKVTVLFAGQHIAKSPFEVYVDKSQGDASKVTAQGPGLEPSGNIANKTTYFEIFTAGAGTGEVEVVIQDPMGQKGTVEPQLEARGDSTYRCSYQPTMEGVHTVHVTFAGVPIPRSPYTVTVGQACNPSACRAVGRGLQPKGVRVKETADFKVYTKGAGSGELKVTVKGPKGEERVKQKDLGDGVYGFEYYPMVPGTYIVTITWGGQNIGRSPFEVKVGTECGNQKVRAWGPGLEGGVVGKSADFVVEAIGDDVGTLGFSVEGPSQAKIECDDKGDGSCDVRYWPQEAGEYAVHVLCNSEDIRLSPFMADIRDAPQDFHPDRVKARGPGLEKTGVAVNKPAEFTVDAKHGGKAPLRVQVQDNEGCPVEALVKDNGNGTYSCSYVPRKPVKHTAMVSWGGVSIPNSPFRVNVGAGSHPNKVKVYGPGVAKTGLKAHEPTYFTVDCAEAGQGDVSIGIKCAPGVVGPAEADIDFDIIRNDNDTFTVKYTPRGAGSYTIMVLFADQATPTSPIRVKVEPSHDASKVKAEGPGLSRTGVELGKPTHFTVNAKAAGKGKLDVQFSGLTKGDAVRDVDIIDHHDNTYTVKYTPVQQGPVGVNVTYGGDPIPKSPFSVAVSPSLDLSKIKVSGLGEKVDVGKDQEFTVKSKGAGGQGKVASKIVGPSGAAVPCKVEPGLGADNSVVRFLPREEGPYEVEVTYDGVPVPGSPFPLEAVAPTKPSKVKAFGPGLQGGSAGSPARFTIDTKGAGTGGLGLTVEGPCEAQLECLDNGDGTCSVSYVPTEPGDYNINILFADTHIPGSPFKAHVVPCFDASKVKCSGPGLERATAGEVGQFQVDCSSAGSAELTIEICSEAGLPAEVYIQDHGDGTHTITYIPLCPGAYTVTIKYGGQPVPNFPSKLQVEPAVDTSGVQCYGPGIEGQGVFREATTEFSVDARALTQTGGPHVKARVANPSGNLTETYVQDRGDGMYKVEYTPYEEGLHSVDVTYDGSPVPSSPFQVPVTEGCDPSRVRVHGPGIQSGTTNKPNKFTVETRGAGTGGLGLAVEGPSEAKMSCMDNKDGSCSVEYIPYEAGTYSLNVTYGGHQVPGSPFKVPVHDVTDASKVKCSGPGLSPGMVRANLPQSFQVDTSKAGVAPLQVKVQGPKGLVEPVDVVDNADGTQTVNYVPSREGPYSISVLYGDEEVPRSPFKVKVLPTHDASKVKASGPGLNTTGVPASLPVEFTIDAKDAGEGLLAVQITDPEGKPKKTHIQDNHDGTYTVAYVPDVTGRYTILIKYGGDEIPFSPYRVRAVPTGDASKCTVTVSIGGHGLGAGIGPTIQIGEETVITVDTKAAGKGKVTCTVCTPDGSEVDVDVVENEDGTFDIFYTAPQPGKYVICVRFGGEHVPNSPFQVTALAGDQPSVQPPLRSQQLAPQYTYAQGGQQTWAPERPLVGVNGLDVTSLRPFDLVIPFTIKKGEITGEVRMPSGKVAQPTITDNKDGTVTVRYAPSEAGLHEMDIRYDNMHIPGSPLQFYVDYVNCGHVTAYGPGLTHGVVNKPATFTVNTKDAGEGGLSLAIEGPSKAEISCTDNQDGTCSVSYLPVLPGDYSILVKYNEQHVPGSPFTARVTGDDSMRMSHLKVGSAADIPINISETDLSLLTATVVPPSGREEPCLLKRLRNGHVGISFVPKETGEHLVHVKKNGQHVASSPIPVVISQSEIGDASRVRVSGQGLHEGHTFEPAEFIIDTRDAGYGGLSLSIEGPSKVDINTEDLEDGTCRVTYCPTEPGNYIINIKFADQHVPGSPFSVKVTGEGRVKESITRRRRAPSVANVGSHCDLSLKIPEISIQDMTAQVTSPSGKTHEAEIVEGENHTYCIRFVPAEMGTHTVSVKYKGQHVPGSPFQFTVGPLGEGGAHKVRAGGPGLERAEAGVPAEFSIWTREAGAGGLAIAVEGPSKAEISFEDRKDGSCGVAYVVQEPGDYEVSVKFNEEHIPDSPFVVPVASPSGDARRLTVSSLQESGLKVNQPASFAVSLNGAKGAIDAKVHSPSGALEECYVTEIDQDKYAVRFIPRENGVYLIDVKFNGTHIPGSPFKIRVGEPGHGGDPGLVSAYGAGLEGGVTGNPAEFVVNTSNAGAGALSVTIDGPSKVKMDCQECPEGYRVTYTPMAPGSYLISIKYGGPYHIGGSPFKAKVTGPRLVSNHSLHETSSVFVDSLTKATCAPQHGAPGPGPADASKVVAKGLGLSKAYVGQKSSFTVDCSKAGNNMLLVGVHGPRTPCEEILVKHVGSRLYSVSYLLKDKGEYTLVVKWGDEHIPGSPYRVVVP
UniProt P62258: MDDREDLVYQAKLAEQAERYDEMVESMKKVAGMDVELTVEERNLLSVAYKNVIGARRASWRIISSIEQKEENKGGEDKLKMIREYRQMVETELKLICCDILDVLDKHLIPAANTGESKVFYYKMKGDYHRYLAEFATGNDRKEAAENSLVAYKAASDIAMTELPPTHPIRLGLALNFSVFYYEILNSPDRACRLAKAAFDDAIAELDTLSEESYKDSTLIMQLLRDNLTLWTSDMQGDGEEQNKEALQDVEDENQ
UniProt Q9BZQ8: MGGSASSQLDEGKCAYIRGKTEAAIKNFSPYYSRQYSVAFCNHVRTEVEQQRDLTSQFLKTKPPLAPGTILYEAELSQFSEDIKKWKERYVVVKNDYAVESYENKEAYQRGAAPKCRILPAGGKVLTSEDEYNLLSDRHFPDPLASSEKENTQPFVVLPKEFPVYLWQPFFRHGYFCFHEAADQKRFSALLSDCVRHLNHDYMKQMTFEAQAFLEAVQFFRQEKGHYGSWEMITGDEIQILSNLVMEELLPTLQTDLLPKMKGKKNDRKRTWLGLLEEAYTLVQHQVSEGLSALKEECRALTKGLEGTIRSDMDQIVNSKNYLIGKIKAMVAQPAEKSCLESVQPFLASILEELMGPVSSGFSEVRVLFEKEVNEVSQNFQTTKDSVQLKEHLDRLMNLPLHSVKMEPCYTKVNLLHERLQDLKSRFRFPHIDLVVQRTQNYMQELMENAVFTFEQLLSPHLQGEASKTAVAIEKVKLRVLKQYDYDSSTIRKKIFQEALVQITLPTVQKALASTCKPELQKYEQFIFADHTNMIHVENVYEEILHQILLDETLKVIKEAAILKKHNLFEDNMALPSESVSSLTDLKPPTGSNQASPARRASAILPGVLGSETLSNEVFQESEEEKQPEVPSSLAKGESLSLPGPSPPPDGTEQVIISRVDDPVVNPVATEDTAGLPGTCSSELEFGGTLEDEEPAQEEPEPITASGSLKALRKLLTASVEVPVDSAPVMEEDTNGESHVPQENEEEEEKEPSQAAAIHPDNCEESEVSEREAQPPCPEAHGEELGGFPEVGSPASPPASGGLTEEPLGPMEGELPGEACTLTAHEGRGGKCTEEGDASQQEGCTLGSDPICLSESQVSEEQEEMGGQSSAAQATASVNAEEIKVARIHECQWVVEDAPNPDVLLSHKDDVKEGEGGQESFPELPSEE
UniProt Q9H1B7, whole entry, looked up: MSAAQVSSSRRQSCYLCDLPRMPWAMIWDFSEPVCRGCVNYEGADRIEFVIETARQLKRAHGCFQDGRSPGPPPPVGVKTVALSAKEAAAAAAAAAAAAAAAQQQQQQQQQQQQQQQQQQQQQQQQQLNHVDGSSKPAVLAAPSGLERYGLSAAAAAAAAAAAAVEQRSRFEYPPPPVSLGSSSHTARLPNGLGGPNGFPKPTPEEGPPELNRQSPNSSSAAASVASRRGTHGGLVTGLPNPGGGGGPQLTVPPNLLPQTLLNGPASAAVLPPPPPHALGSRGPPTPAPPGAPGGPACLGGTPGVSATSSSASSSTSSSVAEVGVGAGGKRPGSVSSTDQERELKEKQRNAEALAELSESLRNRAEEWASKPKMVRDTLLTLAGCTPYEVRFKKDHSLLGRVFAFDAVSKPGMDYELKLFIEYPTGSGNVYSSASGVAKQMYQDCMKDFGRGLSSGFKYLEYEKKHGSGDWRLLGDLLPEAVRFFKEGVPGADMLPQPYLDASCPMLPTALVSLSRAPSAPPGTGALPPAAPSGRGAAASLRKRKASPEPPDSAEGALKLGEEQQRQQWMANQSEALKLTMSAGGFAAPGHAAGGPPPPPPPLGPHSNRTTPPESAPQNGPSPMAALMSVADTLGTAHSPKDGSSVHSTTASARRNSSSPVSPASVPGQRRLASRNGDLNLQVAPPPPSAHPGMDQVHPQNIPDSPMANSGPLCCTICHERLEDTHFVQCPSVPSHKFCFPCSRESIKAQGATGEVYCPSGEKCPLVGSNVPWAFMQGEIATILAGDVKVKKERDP
UniProt Q9NYF8, whole entry, looked up: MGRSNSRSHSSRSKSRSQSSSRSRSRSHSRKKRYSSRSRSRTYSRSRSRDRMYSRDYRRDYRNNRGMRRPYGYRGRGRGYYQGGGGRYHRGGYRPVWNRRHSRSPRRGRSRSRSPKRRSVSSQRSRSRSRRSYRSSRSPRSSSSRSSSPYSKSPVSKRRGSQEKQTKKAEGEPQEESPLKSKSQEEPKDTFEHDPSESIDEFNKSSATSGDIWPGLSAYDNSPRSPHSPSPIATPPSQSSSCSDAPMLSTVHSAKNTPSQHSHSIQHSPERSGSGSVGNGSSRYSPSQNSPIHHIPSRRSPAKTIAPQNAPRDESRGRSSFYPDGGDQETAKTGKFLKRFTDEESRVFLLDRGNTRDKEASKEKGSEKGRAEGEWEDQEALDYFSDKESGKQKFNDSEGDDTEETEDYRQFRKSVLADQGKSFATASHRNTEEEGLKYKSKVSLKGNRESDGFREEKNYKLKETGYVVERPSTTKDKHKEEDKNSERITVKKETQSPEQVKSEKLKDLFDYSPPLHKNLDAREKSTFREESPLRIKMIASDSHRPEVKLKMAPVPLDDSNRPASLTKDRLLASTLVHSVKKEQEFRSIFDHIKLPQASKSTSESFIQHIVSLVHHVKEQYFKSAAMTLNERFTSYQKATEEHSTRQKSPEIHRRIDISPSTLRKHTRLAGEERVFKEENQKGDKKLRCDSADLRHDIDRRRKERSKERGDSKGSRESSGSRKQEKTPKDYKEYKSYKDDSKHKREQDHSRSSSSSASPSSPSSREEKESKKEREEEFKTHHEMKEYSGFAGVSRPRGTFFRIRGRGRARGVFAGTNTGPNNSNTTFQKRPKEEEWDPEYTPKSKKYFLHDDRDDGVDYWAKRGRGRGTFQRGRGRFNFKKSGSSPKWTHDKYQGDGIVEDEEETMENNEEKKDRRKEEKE

UniProt O96017-13_phosphosite_39 (phosphosite position: 39)
phosphopeptide melting temperature shift: 0.611 °C

UniProt O96017-13_phosphosite_158 (phosphosite position: 158)
phosphopeptide melting temperature shift: -0.896 °C

UniProt P08651-4_phosphosite_289 (phosphosite position: 289)
phosphopeptide melting temperature shift: 0.501 °C

UniProt P09651-3_phosphosite_6 (phosphosite position: 6)
phosphopeptide melting temperature shift: -0.744 ± 0.11 °C

UniProt P11274-2_phosphosite_122 (phosphosite position: 122)
phosphopeptide melting temperature shift: 0.54 °C

UniProt P16070-18_phosphosite_304 (phosphosite position: 304)
phosphopeptide melting temperature shift: 2.12 °C

UniProt P18206-2_phosphosite_721 (phosphosite position: 721)
phosphopeptide melting temperature shift: 1.06 ± 0.19 °C

UniProt P18583-2_phosphosite_1378 (phosphosite position: 1378)
phosphopeptide melting temperature shift: 8.42 °C

UniProt P18858-2_phosphosite_76 (phosphosite position: 76)
phosphopeptide melting temperature shift: -0.438 °C

UniProt P18858-2_phosphosite_183 (phosphosite position: 183)
phosphopeptide melting temperature shift: 0.29 ± 0.49 °C

UniProt P21333-2_phosphosite_968 (phosphosite position: 968)
phosphopeptide melting temperature shift: -0.943 °C

UniProt P21333-2_phosphosite_1459 (phosphosite position: 1459)
phosphopeptide melting temperature shift: 0.821 °C

UniProt P21333-2_phosphosite_2150 (phosphosite position: 2150)
phosphopeptide melting temperature shift: 0.534 °C

UniProt P21359-2_phosphosite_2494 (phosphosite position: 2494)
phosphopeptide melting temperature shift: 1.15 °C

UniProt P29590-2_phosphosite_403 (phosphosite position: 403)
phosphopeptide melting temperature shift: 3.69 °C

UniProt P35251-2_phosphosite_156 (phosphosite position: 156)
phosphopeptide melting temperature shift: 0.442 °C

UniProt P35606-2_phosphosite_832 (phosphosite position: 832)
phosphopeptide melting temperature shift: 0.101 ± 0.52 °C

UniProt P35712-4_phosphosite_126 (phosphosite position: 126)
phosphopeptide melting temperature shift: 0.802 ± 0.46 °C

UniProt P40818-2_phosphosite_613 (phosphosite position: 613)
phosphopeptide melting temperature shift: 0.761 °C

UniProt P41227-2_phosphosite_171 (phosphosite position: 171)
phosphopeptide melting temperature shift: 0.732 °C

UniProt P43487-2_phosphosite_187 (phosphosite position: 187)
phosphopeptide melting temperature shift: -1.87 ± 0.78 °C

UniProt P46937-5_phosphosite_164 (phosphosite position: 164)
phosphopeptide melting temperature shift: 2.14 °C

UniProt P48634_phosphosite_456 (phosphosite position: 456)
phosphopeptide melting temperature shift: -1.01 °C

UniProt P48634_phosphosite_808 (phosphosite position: 808)
phosphopeptide melting temperature shift: -3.15 °C

UniProt P49959-2_phosphosite_621 (phosphosite position: 621)
phosphopeptide melting temperature shift: -0.678 °C

UniProt P55209-2_phosphosite_69 (phosphosite position: 69)
phosphopeptide melting temperature shift: -0.725 °C

UniProt P56524-2_phosphosite_453 (phosphosite position: 453)
phosphopeptide melting temperature shift: 1.57 °C

UniProt P57081-2_phosphosite_390 (phosphosite position: 390)
phosphopeptide melting temperature shift: 0.894 ± 0.25 °C

UniProt P61978-2_phosphosite_284 (phosphosite position: 284)
phosphopeptide melting temperature shift: -0.602 °C

UniProt P62070-2_phosphosite_109 (phosphosite position: 109)
phosphopeptide melting temperature shift: -1.82 °C

UniProt P62258_phosphosite_46 (phosphosite position: 46)
phosphopeptide melting temperature shift: 1.59 ± 0.3 °C

UniProt P78527_phosphosite_4026 (phosphosite position: 4026)
phosphopeptide melting temperature shift: -1.01 °C

UniProt P83916_phosphosite_91 (phosphosite position: 91)
phosphopeptide melting temperature shift: -0.471 °C

UniProt P85299_phosphosite_11 (phosphosite position: 11)
phosphopeptide melting temperature shift: 0.363 °C

UniProt Q3V6T2-5_phosphosite_1651 (phosphosite position: 1651)
phosphopeptide melting temperature shift: 2.09 ± 0.34 °C

UniProt Q5JSH3-2_phosphosite_561 (phosphosite position: 561)
phosphopeptide melting temperature shift: 0.467 °C

UniProt Q5SYE7-2_phosphosite_1229 (phosphosite position: 1229)
phosphopeptide melting temperature shift: 0.182 ± 1.9 °C

UniProt Q5T4S7-3_phosphosite_181 (phosphosite position: 181)
phosphopeptide melting temperature shift: 0.92 °C

UniProt Q5VZK9-2_phosphosite_1094 (phosphosite position: 1094)
phosphopeptide melting temperature shift: 0.441 °C

UniProt Q5VZK9-2_phosphosite_1246 (phosphosite position: 1246)
phosphopeptide melting temperature shift: 3.1 °C

UniProt Q6GQQ9-2_phosphosite_449 (phosphosite position: 449)
phosphopeptide melting temperature shift: 1.64 °C

UniProt Q6P2E9-2_phosphosite_498 (phosphosite position: 498)
phosphopeptide melting temperature shift: 0.266 °C

UniProt Q6PCT2-2_phosphosite_99 (phosphosite position: 99)
phosphopeptide melting temperature shift: 4.71 °C

UniProt Q6UN15-3_phosphosite_418 (phosphosite position: 418)
phosphopeptide melting temperature shift: 2.26 ± 1 °C

UniProt Q7LBC6_phosphosite_798 (phosphosite position: 798)
phosphopeptide melting temperature shift: -0.95 °C

UniProt Q7Z4V5_phosphosite_652 (phosphosite position: 652)
phosphopeptide melting temperature shift: 7.23 °C

UniProt Q7Z4V5_phosphosite_664 (phosphosite position: 664)
phosphopeptide melting temperature shift: 1.09 °C

UniProt Q7Z5K2_phosphosite_221 (phosphosite position: 221)
phosphopeptide melting temperature shift: 2.47 ± 2.1 °C

UniProt Q7Z5L9-2_phosphosite_344 (phosphosite position: 344)
phosphopeptide melting temperature shift: -0.893 °C

UniProt Q8IY67-2_phosphosite_617 (phosphosite position: 617)
phosphopeptide melting temperature shift: -2.82 °C

UniProt Q8IZ21-3_phosphosite_102 (phosphosite position: 102)
phosphopeptide melting temperature shift: 2.21 °C

UniProt Q8WVC0-2_phosphosite_140 (phosphosite position: 140)
phosphopeptide melting temperature shift: 1.74 °C

UniProt Q8WVC0-2_phosphosite_570 (phosphosite position: 570)
phosphopeptide melting temperature shift: 0.235 °C

UniProt Q8WVV9-3_phosphosite_30 (phosphosite position: 30)
phosphopeptide melting temperature shift: 1.69 °C

UniProt Q8WYL5-4_phosphosite_666 (phosphosite position: 666)
phosphopeptide melting temperature shift: 0.28 °C

UniProt Q9BST9-3_phosphosite_56 (phosphosite position: 56)
phosphopeptide melting temperature shift: -0.0281 °C

UniProt Q9BU76_phosphosite_220 (phosphosite position: 220)
phosphopeptide melting temperature shift: 2.56 °C

UniProt Q9BUH6_phosphosite_152 (phosphosite position: 152)
phosphopeptide melting temperature shift: 0.669 °C

UniProt Q9BUQ8-2_phosphosite_14 (phosphosite position: 14)
phosphopeptide melting temperature shift: -3.12 °C

UniProt Q9BV36_phosphosite_266 (phosphosite position: 266)
phosphopeptide melting temperature shift: -0.702 °C

UniProt Q9BV36_phosphosite_314 (phosphosite position: 314)
phosphopeptide melting temperature shift: 1.99 °C

UniProt Q9BVC5-2_phosphosite_185 (phosphosite position: 185)
phosphopeptide melting temperature shift: -2.33 °C

UniProt Q9BXP5-5_phosphosite_507 (phosphosite position: 507)
phosphopeptide melting temperature shift: -0.109 °C

UniProt Q9BY44-3_phosphosite_481 (phosphosite position: 481)
phosphopeptide melting temperature shift: 0.339 ± 0.15 °C

UniProt Q9BZ23-3_phosphosite_45 (phosphosite position: 45)
phosphopeptide melting temperature shift: -2.68 °C

UniProt Q9BZQ8_phosphosite_646 (phosphosite position: 646)
phosphopeptide melting temperature shift: -1.78 °C

UniProt Q9H1B7_phosphosite_334 (phosphosite position: 334)
phosphopeptide melting temperature shift: 0.214 °C

UniProt Q9H1B7_phosphosite_547 (phosphosite position: 547)
phosphopeptide melting temperature shift: 1.82 °C

UniProt Q9H3N1_phosphosite_247 (phosphosite position: 247)
phosphopeptide melting temperature shift: 2.17 °C

UniProt Q9H4L5-5_phosphosite_304 (phosphosite position: 304)
phosphopeptide melting temperature shift: -0.205 °C

UniProt Q9HAU0-5_phosphosite_799 (phosphosite position: 799)
phosphopeptide melting temperature shift: 1.59 ± 0.27 °C

UniProt Q9NQG7-2_phosphosite_373 (phosphosite position: 373)
phosphopeptide melting temperature shift: 0.368 °C

UniProt Q9NWV8-3_phosphosite_27 (phosphosite position: 27)
phosphopeptide melting temperature shift: 0.415 °C

UniProt Q9NYF8-3_phosphosite_529 (phosphosite position: 529)
phosphopeptide melting temperature shift: -1.76 ± 2.2 °C

UniProt Q9NYF8-3_phosphosite_646 (phosphosite position: 646)
phosphopeptide melting temperature shift: 1.4 °C

UniProt Q9NYF8-3_phosphosite_656 (phosphosite position: 656)
phosphopeptide melting temperature shift: 1.52 ± 1.6 °C

From the supplement of paper PMC5836539
